Measurements taken from article PMC9922281.

Target: T1, dermatopontin (DPT) of the YAP domain mapping (UniProt Q07507)
T1 sequence: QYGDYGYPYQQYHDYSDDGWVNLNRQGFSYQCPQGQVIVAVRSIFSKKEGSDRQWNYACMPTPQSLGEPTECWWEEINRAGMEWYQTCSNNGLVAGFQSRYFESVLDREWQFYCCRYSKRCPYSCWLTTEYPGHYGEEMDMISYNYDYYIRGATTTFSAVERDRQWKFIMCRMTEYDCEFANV
Assay: co-IP; GFP-tagged YAP and YAP domain-deletion mutants with DPT in 293T cells; western blot

## GFP-tagged YAP (from UniProt P46937-2)
  binding: binds

No constants are given. Whether binding was seen depends on the method and setting. In cells and extracts the contact can be indirect. Binding can be weak; no strength is given.
